Measurements reported in PubChem BioAssay AID504467 (National Center for Advancing Translational Sciences (NCATS), 2011).
Among all 330,000 compounds or so, about 7,700 (2.3%) were called active. Inconclusive means that the source gave no clear call. Such entries were picked first, then a sample of the others. Calls come from the whole dose curve; as a rule, active = well fitted inhibition curve with a large enough effect; inconclusive = small, poorly fitted or top-dose-only effect, or effect the other way; inactive = flat fitted curve, though single readings scatter. Potencies beside an inconclusive call are fits to weak or partial responses and may not hold up.

Assay: qHTS screen for small molecules that inhibit ELG1-dependent DNA repair in human embryonic kidney (HEK293T) cells expressing luciferase-tagged ELG1; note: nearly all actives have a fitted effect of over 55% in size
Details: HEK293T ELG1-luciferase reporter, luminescence, 16 h, DNA damage induced by 5-fluorouridine; activity change, negative = inhibition: at 46.1 µM (top of the series)
How it was run: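 In this reporter screen, reduction of luminescence relative to DMSO vehicle indicated activity. Compounds and 5-fluorouridine were added together to 2,000 cells per well, incubated for 16 hr at 37 °C, then developed with ONE-Glo.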
% is set by controls: 0 for no effect and ±100 for the full control effect; potency is the fitted concentration of half-maximal effect.

Compound	Potency	activity change, negative = inhibition
CC(=O)c1cccc(N=c2scc(-c3ccc(S(=O)(=O)N4CCOCC4)cc3)n2CCO)c1	inconclusive: 25.9 µM [inhibitor, partial curve]	
O=C(COC(=O)C1=COCCO1)Nc1ccccc1	inconclusive: 18.3 µM [activator, single point]	
CCC(C)(C)n1nnnc1C(c1cc(OC)ccc1OC)N1CCN(Cc2ccccc2)CC1 (stereo not drawn)		inactive: -6.63%
Cc1ccc(S(=O)(=O)N(C)c2c(C)ccc(S(=O)(=O)NC(C)(C)C)c2C)cc1	inconclusive: 23.1 µM [inhibitor, single point]	
COc1ccccc1NC(=O)COC(=O)c1ccccc1C(=O)N1CCN(c2ccccc2)CC1	inconclusive: 29.1 µM [inhibitor, single point]	
COc1ccc(CN(C)C(=O)c2ccc(NS(=O)(=O)c3ccc(F)cc3)cc2)c(OC)c1OC	inconclusive: 29.1 µM [inhibitor, single point]	
CCN(CC1COc2ccccc2O1)C(=S)Nc1ccccc1 (stereo not drawn)		inactive: -4.59%
Cc1ccc(O)c(-c2cc(-c3ccc(F)cc3)no2)c1	inconclusive: 4.11 µM [activator, partial curve]	
Cc1ccc(NC(=S)NCC2CCN(C(C)c3ccccc3)C2)cc1C (stereo not drawn)	inconclusive: 25.9 µM [inhibitor, partial curve, poor fit]	
Nc1nnc(SCC(=O)c2ccco2)s1		inactive: 0.59%
O=C(Nc1nnc(N2CCCCCC2)s1)c1cc(-c2ccc(Br)cc2)on1		inactive: 22.3%
O=[N+]([O-])c1ccc(S(=O)(=O)Nc2ncccn2)cc1		inactive: 12.8%
COc1cccc(C2=N/C(=C\N(C)C)C(=O)O2)c1	inconclusive: 3.98 µM [activator, partial curve, poor fit]	
COc1ccccc1CNC(=O)COC(=O)/C=C/c1ccc2ccccc2n1	inconclusive: 20.6 µM [activator, single point]	
Cn1c(/C=C/c2ccccc2)nc2ccccc2c1=O	inconclusive: 1.16 µM [activator, single point]	
CC1CCCC(C)N1CCCNC(=O)c1cc2c(=O)n(C)c3ccccc3c2n1C (stereo not drawn)	inconclusive: 18.4 µM [activator, partial curve]	
CC(=O)NS(=O)(=O)c1ccc(NC(=O)c2ccc3c(c2)OCO3)cc1	inconclusive: 8.2 µM [activator, partial curve]	
Cc1[nH]c2ccccc2c1C(=O)COC(=O)C1CCC(=O)N1 (stereo not drawn)		inactive: -5.97%
Oc1ccc(Br)cc1/C=N/N1CCN(Cc2ccccc2)CC1	inconclusive: 32.6 µM [activator, single point]	
O=C(CO/N=C/c1c(Cl)cccc1Cl)NNC(=O)c1cccc(Cl)c1		inactive: -3.03%
Cc1nc(-c2ccc([N+](=O)[O-])cc2)sc1C(=O)O	inconclusive: 20.6 µM [activator, partial curve]	
CN(C)C(=O)c1coc2nc3ccccc3nc12	inconclusive: 29.1 µM [activator, single point]	

Compound	Potency	activity change, negative = inhibition
Cc1ccc(NS(=O)(=O)c2cccc(C(=O)NCCCN3CCCC3=O)c2)cc1		inactive: 16.6%
COCC(=O)N1CCN(c2nc3ccccc3o2)CC1	inconclusive: 18.3 µM [activator, single point]	
COC(=O)c1ccc(/C=N/n2cnnc2)cc1		inactive: 9.05%
CCc1ccccc1NC(=O)CSc1nc2ccccc2nc1N1CCOCC1		inactive: -18.4%
COc1ccc(C2c3[nH]c4ccccc4c3C[C@H]3C(=O)N(c4ccccc4C(=O)N4CCC(C(=O)O)CC4)C(=O)N23)cc1 (stereo partly drawn)	inconclusive: 0.58 µM [inhibitor, full curve]	
CCOC(=O)C1=C(C)NC(=S)NC1c1ccc(OCC(=O)N2CCCCCC2)c(OC)c1 (stereo not drawn)		inactive: -16.1%
COc1ccccc1N1CCN(Cc2ccc(O)c3ncccc23)CC1	inconclusive: 3.26 µM [inhibitor, single point]	
Cc1ccc(NC(=O)NC2CCN(S(=O)(=O)c3ccc(F)cc3)CC2)cc1	inconclusive: 23.1 µM [inhibitor, single point]	
CCOC(=O)CS(=O)(=O)c1nc(-c2ccccc2)cc(C(F)(F)F)n1	inconclusive: 29.1 µM [inhibitor, single point]	
CS(=O)(=O)Nc1ccccc1C(=O)Nc1cccc(Cl)c1	inconclusive: 18.4 µM [inhibitor, partial curve]	
COc1ccc(CCn2c(-c3cccc([N+](=O)[O-])c3)nc3nc4ccccc4nc32)cc1OC	inconclusive: 2.59 µM [inhibitor, partial curve, poor fit]	
C/C(=N\NC(=O)c1ccc2c(c1)OCO2)c1ccc2c(c1)OCO2	inconclusive: 20.6 µM [activator, partial curve]	
c1ccc(-c2cn3c4c(sc3n2)CCCC4)cc1	inconclusive: 0.206 µM [activator, full curve]	
COc1cc(C(=O)C(=O)c2ccc(O)c(OC)c2)ccc1O	inconclusive: 18.3 µM [activator, partial curve]	
Cc1cccc2cc(C#N)c(SCC(=O)Nc3ccccc3N3CCOCC3)nc12	inconclusive: 29.1 µM [inhibitor, single point]	
CCN(CC)C(=O)COc1ccc(-c2ccccc2)cc1	inconclusive: 13 µM [activator, partial curve]	
CCCCNc1c(-c2ccc(Sc3ccc(OC)cc3)cc2)nc2cc(C)ccn12	inconclusive: 20.6 µM [inhibitor, single point]	
O=C(C1=C[C@@H](c2ccccc2)C[C@@H](OCc2ccc(CO)cc2)O1)N1CCN(Cc2ccc3c(c2)OCO3)CC1	active: 14.6 µM	
O=C(Nc1nnc(S(=O)(=O)N2CCCCCC2)s1)c1ccccc1	inconclusive: 16.4 µM [activator, partial curve, poor fit]	
CC1CC(C)CN(C(=S)SCc2nc(N)nc(Nc3ccccc3)n2)C1 (stereo not drawn)	inconclusive: 23.1 µM [inhibitor, partial curve, poor fit]	
CN(Cc1ccco1)S(=O)(=O)c1nnc(NC(=O)c2ccccc2)s1	inconclusive: 18.3 µM [activator, single point]	

Among those listed so far, these contain a Cl atom.
Compound	Potency	activity change, negative = inhibition
O=C(CO/N=C/c1c(Cl)cccc1Cl)NNC(=O)c1cccc(Cl)c1		inactive: -3.03%
CS(=O)(=O)Nc1ccccc1C(=O)Nc1cccc(Cl)c1	inconclusive: 18.4 µM [inhibitor, partial curve]	
